# Only a part is listed here, and it is no random draw. At the low end of the ranking the order means little.
# How the values were obtained:
# Test in all cases: DAPPL (digital affinity profiling via proximity ligation, sequencing)
# Conditions in all cases: 10 mM Tris-HCl pH 7.5, 50 mM NaCl, 1 mM DTT, 4% glycerol, room temperature, 30 min; GST-TFs on glutathione beads, 16-mer random dsDNA library, 0.1% …; high values mean tight binding; double strand, one strand shown; scale: fold enrichment (6-mer frequency, TF over GST control)
# ELK1 = target: T1, ELK1 (UniProt P19419)
# T1 sequence: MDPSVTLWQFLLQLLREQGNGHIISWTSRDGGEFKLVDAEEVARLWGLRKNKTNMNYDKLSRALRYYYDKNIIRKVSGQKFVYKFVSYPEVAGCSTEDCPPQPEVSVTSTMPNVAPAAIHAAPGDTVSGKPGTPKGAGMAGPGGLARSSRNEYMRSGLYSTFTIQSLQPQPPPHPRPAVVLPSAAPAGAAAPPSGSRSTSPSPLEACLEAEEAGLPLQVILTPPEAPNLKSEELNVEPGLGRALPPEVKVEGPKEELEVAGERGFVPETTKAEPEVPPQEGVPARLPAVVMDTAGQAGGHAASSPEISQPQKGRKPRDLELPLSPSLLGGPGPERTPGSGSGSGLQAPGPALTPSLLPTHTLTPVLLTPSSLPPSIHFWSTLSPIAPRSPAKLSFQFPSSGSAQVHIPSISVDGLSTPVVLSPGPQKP
# ELK3 = target: T2, ELK3 (UniProt P41970)
# T2 sequence: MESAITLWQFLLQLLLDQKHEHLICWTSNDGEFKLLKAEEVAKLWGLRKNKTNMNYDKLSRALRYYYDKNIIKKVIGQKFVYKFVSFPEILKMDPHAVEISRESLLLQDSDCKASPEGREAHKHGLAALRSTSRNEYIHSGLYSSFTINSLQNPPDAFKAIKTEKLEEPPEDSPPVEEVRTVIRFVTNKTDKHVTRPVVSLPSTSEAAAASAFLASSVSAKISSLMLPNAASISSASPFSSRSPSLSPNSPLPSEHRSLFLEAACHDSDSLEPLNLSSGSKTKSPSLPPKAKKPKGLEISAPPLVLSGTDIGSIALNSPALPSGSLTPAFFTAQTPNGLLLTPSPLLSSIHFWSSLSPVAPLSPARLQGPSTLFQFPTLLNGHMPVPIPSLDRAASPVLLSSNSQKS
# SPIC = target: T3, SPIC (UniProt Q8N5J4)
# T3 sequence: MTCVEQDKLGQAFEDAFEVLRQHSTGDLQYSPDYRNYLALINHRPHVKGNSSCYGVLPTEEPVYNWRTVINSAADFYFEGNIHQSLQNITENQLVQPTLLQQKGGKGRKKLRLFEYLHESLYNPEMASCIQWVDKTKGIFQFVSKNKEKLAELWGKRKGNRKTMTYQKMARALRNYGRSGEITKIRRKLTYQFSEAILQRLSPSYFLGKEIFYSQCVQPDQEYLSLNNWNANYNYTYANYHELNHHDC
# ETS2 = target: T4, ETS2 (UniProt P15036)
# T4 sequence: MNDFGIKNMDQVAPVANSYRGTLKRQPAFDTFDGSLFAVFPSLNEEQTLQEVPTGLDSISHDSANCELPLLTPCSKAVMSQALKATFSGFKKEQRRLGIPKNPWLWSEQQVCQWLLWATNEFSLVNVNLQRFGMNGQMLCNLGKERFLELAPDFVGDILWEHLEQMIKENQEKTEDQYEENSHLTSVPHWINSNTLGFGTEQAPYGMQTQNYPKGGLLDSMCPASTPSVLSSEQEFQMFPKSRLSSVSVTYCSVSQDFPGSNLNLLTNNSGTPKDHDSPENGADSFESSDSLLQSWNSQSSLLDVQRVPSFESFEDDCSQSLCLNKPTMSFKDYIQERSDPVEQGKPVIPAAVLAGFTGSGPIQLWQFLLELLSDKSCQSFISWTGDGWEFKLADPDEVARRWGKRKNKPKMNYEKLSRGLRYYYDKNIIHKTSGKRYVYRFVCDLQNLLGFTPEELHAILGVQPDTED
# ETV3 = target: T5, ETV3 (UniProt P41162-2)
# T5 sequence: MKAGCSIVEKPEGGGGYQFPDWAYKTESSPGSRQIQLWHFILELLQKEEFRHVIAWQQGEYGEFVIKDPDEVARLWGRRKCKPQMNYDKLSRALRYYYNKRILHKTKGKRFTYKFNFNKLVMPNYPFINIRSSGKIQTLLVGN
Sequence,binding signal (ELK1),binding signal (ELK3),binding signal (SPIC),binding signal (ETS2),binding signal (ETV3)
TGACGG,0.959,0.953,0.977,0.907,0.933
GCCAAC,0.879,0.804,0.958,0.947,0.947
ACCGGT,0.924,0.841,0.884,0.945,0.886
GGATGG,0.996,0.987,0.861,1.03,0.978
TTAGTC,0.725,0.808,0.869,0.793,0.789
TAAGTC,0.941,0.938,0.868,0.909,0.907
GTCATT,0.951,0.851,0.927,0.94,0.916
GTCAAA,0.933,0.908,0.889,0.953,0.929
GTATCG,0.93,0.841,0.871,0.928,0.891
CATCAT,1.06,0.962,0.984,1.08,1.08
GTAGAA,0.928,0.877,0.935,0.92,0.858
CCAAGA,0.941,0.908,0.901,0.9,0.885
GATAAA,0.968,0.96,0.963,0.95,0.942
TACGAG,0.972,0.92,0.831,0.957,0.874
GCTAGG,0.915,0.977,1.03,0.954,1.03
GGCAGC,1.02,0.893,0.822,0.858,0.971
GTTGGT,0.969,0.927,0.904,0.779,0.994
TCGAGG,0.79,0.806,0.802,0.831,0.718
GTGGAT,0.939,1.04,0.997,0.922,0.93
ACCAAA,1.05,0.969,0.875,0.979,1.02
GCATTA,0.811,0.862,0.777,0.868,0.872
GCAGCA,0.992,0.976,0.927,0.946,0.925
GATAAC,0.996,0.961,0.73,0.97,0.942
TCAAGA,0.882,0.92,0.912,0.854,0.822
CGGCAA,0.881,0.938,0.817,0.915,0.953
AGTCTT,0.903,0.889,0.839,0.922,0.896
GGGATT,0.877,0.989,0.829,0.91,0.774
GAATCA,0.907,0.87,0.849,0.918,0.848

# Taken from the listing (two entries):
Sequence,binding signal (ELK1),binding signal (ELK3),binding signal (SPIC),binding signal (ETS2),binding signal (ETV3)
GCAGCA,0.992,0.976,0.927,0.946,0.925
GATAAC,0.996,0.961,0.73,0.97,0.942
